Where two headings read alike, the source gives them in different places. No constants are given. Whether binding was seen depends on the method and setting. Binding seen in cells or lysates may run through a third protein. Some results given as binding are weak or reduced against the parent protein; the word gives no strength. Each block holds one substance with its values, some of them ahead of it.
Legend:
Test in all cases: co-IP
[1] = biological target: T1, Lipolysis-stimulated lipoprotein receptor (LSR) (mouse (endogenous in mouse ISCs)) (UniProt Q99KG5)
T1 sequence: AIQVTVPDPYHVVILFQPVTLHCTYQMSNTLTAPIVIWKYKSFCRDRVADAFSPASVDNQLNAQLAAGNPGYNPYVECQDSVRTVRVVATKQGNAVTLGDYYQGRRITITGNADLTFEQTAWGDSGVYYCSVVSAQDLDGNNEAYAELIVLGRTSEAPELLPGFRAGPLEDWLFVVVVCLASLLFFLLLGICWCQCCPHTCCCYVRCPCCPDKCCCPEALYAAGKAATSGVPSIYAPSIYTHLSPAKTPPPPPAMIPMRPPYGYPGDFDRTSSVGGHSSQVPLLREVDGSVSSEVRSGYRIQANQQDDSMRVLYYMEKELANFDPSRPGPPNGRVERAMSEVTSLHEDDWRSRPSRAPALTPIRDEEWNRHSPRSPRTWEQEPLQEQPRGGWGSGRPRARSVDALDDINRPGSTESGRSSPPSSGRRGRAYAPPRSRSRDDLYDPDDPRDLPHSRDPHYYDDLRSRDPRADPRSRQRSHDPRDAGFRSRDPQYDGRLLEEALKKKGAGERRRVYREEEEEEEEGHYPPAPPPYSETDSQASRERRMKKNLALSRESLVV

By UniProt entry, the sequences of proteins in these tests, tags left out.
UniProt P46938: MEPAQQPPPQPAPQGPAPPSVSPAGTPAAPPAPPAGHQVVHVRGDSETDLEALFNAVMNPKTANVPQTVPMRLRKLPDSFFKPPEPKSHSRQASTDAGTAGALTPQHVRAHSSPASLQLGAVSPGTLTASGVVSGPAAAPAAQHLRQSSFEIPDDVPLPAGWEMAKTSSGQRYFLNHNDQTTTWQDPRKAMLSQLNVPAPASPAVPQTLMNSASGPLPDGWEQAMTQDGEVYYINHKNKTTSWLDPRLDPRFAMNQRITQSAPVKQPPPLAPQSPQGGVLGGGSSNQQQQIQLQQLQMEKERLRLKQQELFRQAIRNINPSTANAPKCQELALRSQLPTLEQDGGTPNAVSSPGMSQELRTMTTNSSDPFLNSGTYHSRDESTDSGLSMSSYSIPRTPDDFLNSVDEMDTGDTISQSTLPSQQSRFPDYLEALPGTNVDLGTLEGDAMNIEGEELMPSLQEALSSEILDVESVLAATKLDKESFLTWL
UniProt P62137: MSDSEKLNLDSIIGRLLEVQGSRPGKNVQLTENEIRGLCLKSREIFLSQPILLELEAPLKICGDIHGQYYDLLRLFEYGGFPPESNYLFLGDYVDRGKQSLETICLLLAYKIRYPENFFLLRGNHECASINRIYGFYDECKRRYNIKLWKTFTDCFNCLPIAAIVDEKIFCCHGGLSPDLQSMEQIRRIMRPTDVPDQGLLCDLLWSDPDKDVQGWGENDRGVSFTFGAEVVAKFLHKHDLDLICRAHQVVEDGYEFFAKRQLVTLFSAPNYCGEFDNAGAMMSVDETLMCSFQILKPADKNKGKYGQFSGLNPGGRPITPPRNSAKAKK
UniProt P63101: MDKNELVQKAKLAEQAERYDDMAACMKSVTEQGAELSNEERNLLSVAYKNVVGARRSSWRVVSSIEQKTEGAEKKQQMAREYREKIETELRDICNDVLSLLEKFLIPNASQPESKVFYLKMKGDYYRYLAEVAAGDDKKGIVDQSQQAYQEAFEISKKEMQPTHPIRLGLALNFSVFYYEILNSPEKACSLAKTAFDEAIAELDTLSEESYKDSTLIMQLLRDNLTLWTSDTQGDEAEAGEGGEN

[2] = biological target: YAP (pCMV6-YAP, mouse) (mouse) (UniProt P46938)
[3] = biological target: YAP (mouse (endogenous in mouse ISCs)) (UniProt P46938)
[4] = biological target: YAP (mouse (endogenous in mouse ISCs)) (UniProt P46938); remark: listed apart in the source

binding [1]: binds
Substance: YAP (from UniProt P46938 1-488)

Substance: PPP1CA (pCMV6-Ppp1ca, mouse) (from UniProt P62137 1-330) (enzyme)
binding [2]: no binding

binding [1]: binds
Substance: 14-3-3 zeta (from UniProt P63101 1-245)

binding [3]: no binding
binding [4]: no binding
Substance: protein phosphatase 1 catalytic subunit alpha (PPP1CA) (from UniProt P62137 1-330) (enzyme)

From publication doi:10.1101/2022.10.30.514401
